For 2 molecules, binding results are on record in article PMC7931232.

These are yes or no findings as the source states them, for the method shown.

Assay [1] deals with OSM-3 1-362 construct (core motor domain and 35 additional C-terminal residues) (Caenorhabditis elegans) (UniProt P46873). Briefly: SEC-MALS; Superdex 200 Increase 10/300 GL in 25 mM Pipes-K pH 6.8, 100 mM NaCl, 2 mM MgCl2, 1 mM EGTA, 25 uM ATP; 100 uL samples at about 2 mg/mL OSM-3; both purified. (In general: Size exclusion chromatography separates by hydrodynamic size, large species first.)

For assay [2], the target named is OSM-3 1-337 construct (core motor domain and 10 additional C-terminal residues) (Caenorhabditis elegans) (UniProt P46873). The assay is described as above.

B1: OSM-3 1-362 construct (core motor domain and 35 additional C-terminal residues) (domain or fragment, UniProt P46873-1 1-362)
chain: MAAESVRVAVRCRPFNQREKDLNTTLCVGMTPNVGQVNLNAPDGAAKDFTFDGAYFMDSTGEQIYNDIVFPLVENVIEGYNGTVFAYGQTGSGKTFSMQGIETIPAQRGVIPRAFDHIFTATATTENVKFLVHCSYLEIYNEEVRDLLGADNKQKLEIKEQPDRGVYVAGLSMHVCHDVPACKELMTRGFNNRHVGATLMNKDSSRSHSIFTVYVEGMTETGSIRMGKLNLVDLAGSERQSKTGATGDRLKEATKINLSLSALGNVISALVDGKSKHIPYRDSKLTRLLQDSLGGNTKTIMIACVSPSSDNYDETLSTLRYANRAKNIKNKPTINEDPKDALLREYQEEIARLKSMVQPGAVG
Regarding B1, the binding result in assay [1] is recorded as “no binding (tested: about 2 mg·mL^−1)”.

B2: OSM-3 1-337 construct (core motor domain and 10 additional C-terminal residues) (domain or fragment, UniProt P46873-1 1-337)
chain: MAAESVRVAVRCRPFNQREKDLNTTLCVGMTPNVGQVNLNAPDGAAKDFTFDGAYFMDSTGEQIYNDIVFPLVENVIEGYNGTVFAYGQTGSGKTFSMQGIETIPAQRGVIPRAFDHIFTATATTENVKFLVHCSYLEIYNEEVRDLLGADNKQKLEIKEQPDRGVYVAGLSMHVCHDVPACKELMTRGFNNRHVGATLMNKDSSRSHSIFTVYVEGMTETGSIRMGKLNLVDLAGSERQSKTGATGDRLKEATKINLSLSALGNVISALVDGKSKHIPYRDSKLTRLLQDSLGGNTKTIMIACVSPSSDNYDETLSTLRYANRAKNIKNKPTINEDP
Consider B2, for which the binding entry in assay [2] was “no binding (tested: about 2 mg·mL^−1)”.
